# Screening data, single-dose tests

Measurements from “University of Dundee, Small-Polar-MMV Screening Library” (2021), ChEMBL document CHEMBL3988442.

T. brucei: 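Whole-parasite assay of Trypanosoma brucei over 72 hours; the read-out is not stated. Compounds at 30 µM. Higher reads as stronger inhibition (inferred: compounds with an IC50 in retests scored well above the rest). Values scatter widely below zero; nearly all retest evidence comes from the higher of the two concentrations used. About 64,000 compounds were tested under these conditions; 1.5% (about 940) showed 50% or more at least once.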
Toxoplasma: 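Assay of Toxoplasma gondii numbers, read through their beta-galactosidase reporter with a colour substrate. Tested at 10 µM. Higher reads as fewer parasites (inferred from which compounds were picked for retests). Of about 67,000 compounds tested this way, about 260 (0.38%) reached 50% or more in at least one test.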

Each number is a percent effect as filed.
The controls that fix the scale are not given in the record; negative values are as filed.
The compounds are a random part of those screened.

- O=C(NCC1CCSCC1)N(CCCO)C1CCc2ccccc21 (configuration not stated) : T. brucei: -8.074%; Toxoplasma: 11.41%
- O=C1NCCN1C1CCN(Cc2nc(-c3ccc(F)cc3)no2)CC1 : T. brucei: -20.72%; Toxoplasma: 10.07%
- CC(=O)NCCNC(=O)c1cc(Br)c2c(c1)OCCO2 : T. brucei: -14.51%
- CCc1nc(CCNc2ncccn2)sc1C : T. brucei: -90.61%; Toxoplasma: -1.803%
- Cc1ccsc1CNC1CCCN(Cc2noc(C3CC3)n2)C1 (configuration not stated) : T. brucei: 9.353%; Toxoplasma: 10.88%
- c1cnn(CC2CCN(c3nc(C4CC4)nc4c3CCNCC4)CC2)c1 : T. brucei: -50.34%; Toxoplasma: -18.49%
- Cn1cnc2c1C(COCC1CCOCC1)CN(C(=O)C1CC=CC1)C2.O=C(O)C(F)(F)F (configuration not stated) : T. brucei: -6.396%; Toxoplasma: -8.834%
- Cc1noc(CC2CCN(Cc3ccc(CCC(C)(C)O)cc3)CC2)n1 : T. brucei: 10.91%; Toxoplasma: -2.34%
- COc1cc2nc3n(c(=O)c2cc1OC)CCN(C(=O)C1CCC1)CC3 : T. brucei: -3.23%; Toxoplasma: 6.176%
- O=C(Cc1cnc(-n2cccc2)s1)NCCCO : T. brucei: -25.35%; Toxoplasma: -15.51%
- O=C(CNc1ccc(OC2CCOC2)cc1)NCc1ccco1 (configuration not stated) : T. brucei: -50.26%; Toxoplasma: -18.73%
- CC(=O)NCC(=O)N1Cc2nccn2CC(Cn2cccn2)C1 (configuration not stated) : Toxoplasma: -4.572%
- Cc1nc2c(c(C)c1CC(=O)Nc1cccc(C#N)c1)c(=O)[nH]n2C : T. brucei: -44.67%; Toxoplasma: -1.004%
- C=C(C)COc1cccc(C(=O)N(C)C(C)c2c(C)n[nH]c2C)c1 (configuration not stated) : T. brucei: -1.1%; Toxoplasma: 13.68%
- O=C(N[C@@H]1CN(Cc2cccc3[nH]ccc23)C[C@H]1O)c1cscn1 : T. brucei: -6.851%; Toxoplasma: 0.316%
- O=C(O)C(F)(F)F.[H][C@@]12CCN(Cc3ccc(C)s3)[C@]1([H])CC[C@H](C(=O)N1CCCO1)O2 : T. brucei: -5.232%; Toxoplasma: 5.352%
- CCOc1ncccc1C(=O)N1CCCC(n2nc(C)nc2C)C1 (configuration not stated) : T. brucei: 12.05%; Toxoplasma: 1.853%
- OC1CCCN(Cc2ccc(F)c3cccnc23)C1 (configuration not stated) : T. brucei: -39.2%; Toxoplasma: -3.495%
- COc1cc(Cc2nc3c([nH]2)CC(C)(C)CNC3=O)cc(OC)c1 : T. brucei: -74.64%; Toxoplasma: 0.8038%
- CCn1nc(C)c(C(=O)N2C[C@@H](CN(C)CCOC)[C@@H](CO)C2)c1C : T. brucei: -25.27%; Toxoplasma: -9.847%
- NC(=O)C1CCN(C(=O)c2cccc(OCc3cscn3)c2)CC1 : T. brucei: -24.95%; Toxoplasma: -16.62%
- COc1ncc(CN(CCN(C)C)Cc2ccc(C)s2)cn1 : T. brucei: -20.61%; Toxoplasma: -17.46%
- CC(NC(=O)N(C)CCOc1ccccc1F)c1nncn1C (configuration not stated) : T. brucei: 14.59%; Toxoplasma: -10.39%
- O=C(NCc1ccc(CN2CCCC2)cc1)NC1(CO)CCCC1 : Toxoplasma: -7.939%
- O=C(O)C(F)(F)F.[H][C@]12CCC[C@@]1(COCc1ccncc1)CN(C(=O)CS(C)(=O)=O)C2 : T. brucei: -20.28%; Toxoplasma: -3.484%

Repeated from the top, 2 entries:

{"structure": "O=C(NCC1CCSCC1)N(CCCO)C1CCc2ccccc21", "stereo": "configuration not stated", "T. brucei": -8.074, "Toxoplasma": 11.41}
{"structure": "O=C1NCCN1C1CCN(Cc2nc(-c3ccc(F)cc3)no2)CC1", "T. brucei": -20.72, "Toxoplasma": 10.07}